# Library screen at single concentrations

Sequences of proteins named here, by UniProt entry; tags and fusion partners are left off. Residues count along the entry.
UniProt Q4DA54, 1-478: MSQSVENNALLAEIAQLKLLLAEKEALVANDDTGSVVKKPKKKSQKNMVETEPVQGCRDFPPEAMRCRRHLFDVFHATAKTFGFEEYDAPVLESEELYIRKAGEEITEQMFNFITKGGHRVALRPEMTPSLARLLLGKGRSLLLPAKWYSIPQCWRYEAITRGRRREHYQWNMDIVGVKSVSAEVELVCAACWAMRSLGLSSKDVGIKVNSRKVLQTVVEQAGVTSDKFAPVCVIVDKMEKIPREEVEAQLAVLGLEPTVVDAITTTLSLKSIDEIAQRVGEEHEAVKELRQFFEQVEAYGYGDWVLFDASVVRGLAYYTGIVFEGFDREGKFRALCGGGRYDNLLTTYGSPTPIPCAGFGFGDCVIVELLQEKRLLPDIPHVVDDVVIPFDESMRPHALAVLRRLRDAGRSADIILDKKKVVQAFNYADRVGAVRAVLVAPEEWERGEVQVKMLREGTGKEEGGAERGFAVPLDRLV

Data taken from ChEMBL document CHEMBL3988442, “University of Dundee, Small-Polar-MMV Screening Library” (2021).

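Histidine-tRNA ligase, Trypanosoma cruzi CL Brener (UniProt Q4DA54). Enzyme assay of histidyl-tRNA synthetase; the read-out is not stated. Compounds at 30 µM. Direction is inferred from retests: higher values go with stronger inhibition. Of about 69,000 compounds tested this way, about 31 (0.045%) reached 50% or more in at least one test.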

The filed quantity is “Percent Effect” (%).
How 0% and 100% were set is not recorded. Most values in the screen are low, and negative values occur.
Compounds were drawn at random from those tested, without regard to their results.

Compound: CCc1nc(CC)n(CC(=O)N(C)CC(F)(F)F)n1
Percent Effect: 1.724%

Compound: O=C(NCCc1ccc(I)s1)N1CCC1
Percent Effect: 6.197%

Compound: COCc1nc(N2CCC(CCO)CC2)c2cnn(C)c2n1
Percent Effect: 6.173%

Compound: COc1ccc(NS(=O)(=O)c2cnc(NC(C)=O)s2)cc1
Percent Effect: 9.565%

Compound: CCCC(=O)N(CCN1CCOCC1)c1nc2c(OC)ccc(C)c2s1
Percent Effect: 10.31%

Compound: CN(Cc1ccc(F)cc1)[C@@H]1CN(C(=O)c2cccs2)C[C@H]1O
Percent Effect: 1.075%

Compound: Cn1ccnc1CN1CCN(CCOc2cccc(C#N)c2)CC1
Percent Effect: 5.263%

Compound: COc1ccc(NC(=O)CSc2nc(C)c(C)c(C)c2C#N)cn1
Percent Effect: 5.263%

Compound: CCC(C)Oc1ccc(CNCCNS(C)(=O)=O)cc1Cl (stereo not given)
Percent Effect: 9.045%

Compound: CN(Cc1ccco1)Cc1ccccc1CNC(=O)c1csnn1
Percent Effect: 13.79%

Compound: CC(C)c1cc(NC(=O)CN2CCNC(=O)C2)on1
Percent Effect: 8.745%

Compound: CC(C)c1nc(CN2CCCN(Cc3nccn3C)CC2)no1
Percent Effect: 3.955%

Compound: COCCCN1CCN([C@@H]2c3ccccc3C3(CCNCC3)[C@H]2O)CC1
Percent Effect: 3.004%

Compound: Cn1ccnc1C1CCN(S(=O)(=O)c2ccc3oc(=O)[nH]c3c2)CC1
Percent Effect: 0%

Compound: CCC1c2ccsc2CCN1C(=O)NCCc1ccccn1 (stereo not given)
Percent Effect: 9.677%

Compound: CN(C)c1cc(C(=O)N2CCCCC2)ccn1
Percent Effect: 4.399%

Compound: CCn1cc(-c2cc(C(=O)N3CCOCC3)c3cc(Cl)ccc3n2)cn1
Percent Effect: 0.8696%

Compound: O=C(Cc1csc(-c2ccco2)n1)N1CCN(c2nccs2)CC1
Percent Effect: 7.324%

Compound: CN1CCC2(CC1)C(=O)N(c1cccnc1)c1ccc(F)cc12
Percent Effect: 4.813%

Compound: OC(CNCCn1cccn1)COc1ccc2ccccc2c1 (stereo not given)
Percent Effect: 8.889%

Compound: CC(=O)N1CCC(c2nnc3ccc(C(=O)NCC(C)C)cn23)C1 (stereo not given)
Percent Effect: 1.031%

Compound: CC[C@@H]1N(Cc2ccc(F)cc2)CCC[C@]12CCC(=O)N2CCOC
Percent Effect: 5.607%

Compound: CN(C)C(=O)COc1ccccc1CN1CCOC2(CCCC2)C1
Percent Effect: 4.712%

Compound: O=C1C[C@H]2[C@@H](CCN2Cc2ccccn2)N1CCN1CCOCC1
Percent Effect: 6.796%

Compound: Cc1ccc2c(n1)N(CC1CC1)CCN(Cc1cnn(C)c1)C2
Percent Effect: 1.676%

Compound: CN(C)C(CNC(=O)OCC(F)(F)F)c1ccsc1 (stereo not given)
Percent Effect: 12.73%

Compound: CC(C)(C)NC(=O)CN1CCCN(c2ccc(C#N)cn2)CC1
Percent Effect: 6.383%

Compound: COCCC(C)NC(=O)c1cc(Br)c2c(c1)OCCO2 (stereo not given)
Percent Effect: 2.26%

Compound: O=C(NCCNc1ncccn1)C1CC(=O)N(C2CCCC2)C1 (stereo not given)
Percent Effect: 2.035%

Compound: Cc1nc(N2CCOc3ccc(CO)cc3C2)c2c(C)noc2n1
Percent Effect: 10.34%

Compound: CC(=O)c1cnc(NCCc2csc(-c3cnccn3)n2)nc1C
Percent Effect: 1.681%

Compound: CNC(=O)Cc1ccc(-n2ccnc2-c2ccc(C(=O)O)s2)cc1
Percent Effect: 8.081%

Compound: CC(=O)N[C@@H](CC(C)C)C(=O)N1CCC(n2cc(CC(C)C)nn2)CC1
Percent Effect: 8.152%

Compound: Cc1ncsc1CN1C[C@@H]2COC[C@]2(CNC(=O)c2ccccc2)C1
Percent Effect: 3.659%

Compound: Cc1ccc(N2C[C@H]3OCC[C@H]3[C@H](C(=O)NC3CCC3)C2)nn1
Percent Effect: 0.9852%

Compound: CC(=O)N1N=C(c2ccccc2)OC1C(=O)N(C)CCc1ccccc1 (stereo not given)
Percent Effect: 2.273%

Compound: CCS(=O)(=O)N1CCN(C(C)c2ncc(-c3ccccc3)o2)CC1 (stereo not given)
Percent Effect: 9.453%

Compound: CC(C)Oc1cc(N2CCC3(CC2)[C@H](O)C[C@@H]3O)nc(N)n1
Percent Effect: -1.058%

Compound: CO[C@H]1[C@@H]2CC[C@H]1CN(c1nc(C)nc3sccc13)C2
Percent Effect: 3.261%

Compound: CNC(=O)c1cc2c(nc1N(C)C)CCN(c1ncc(C)cn1)CC2
Percent Effect: 8.543%

Compound: CC(Cn1cccn1)NCc1nc(-c2ccc3c(c2)OCO3)no1 (stereo not given)
Percent Effect: -5.056%

Compound: CC(O)CN1CCC(CNCc2cccc(OC(C)C)c2)CC1 (stereo not given)
Percent Effect: 0%

Compound: O=C1NCC[C@]12CN(Cc1cccnc1)C[C@H]2c1ccccc1
Percent Effect: 8.743%

Compound: CCCN(Cc1ccccn1)Cc1ccccc1OC
Percent Effect: 2.809%

Compound: CCn1nc(C)c(NC(=O)CN(C)C(C)c2nccs2)c1C (stereo not given)
Percent Effect: 0.5291%

Compound: O=C(Nc1ccccc1OC1CCOC1)c1cc[nH]n1 (stereo not given)
Percent Effect: 6.077%

Compound: Cc1ccc(-n2c(O)cc(C)c(C#N)c2=O)c(C)c1
Percent Effect: 5.263%

Compound: CC(C)Cc1nc(CN2CCCC2Cn2cncn2)no1 (stereo not given)
Percent Effect: 9.467%

Compound: CCCN1CCN(C(=O)Cn2nc(C(F)(F)F)c(Br)c2C2CC2)CC1
Percent Effect: 8.911%

Compound: Cc1cnc2c(c1)N(C(=O)c1ccc(=O)n(C)c1)CCO2
Percent Effect: 5.202%

Compound: Cc1noc(C(C)N2CCN(c3ncnc4sccc34)CC2)n1 (stereo not given)
Percent Effect: -2.041%

Compound: COCC1c2c(cnn2CC2CC2)CCN1Cc1cc(C)on1 (stereo not given)
Percent Effect: 4.762%

Compound: CCn1cc(NC(=O)NCC(c2cccs2)N(C)C)cn1 (stereo not given)
Percent Effect: 7.985%

5 of the entries, repeated:

Compound,Percent Effect
CN1CCC2(CC1)C(=O)N(c1cccnc1)c1ccc(F)cc12,4.813%
COCCCN1CCN([C@@H]2c3ccccc3C3(CCNCC3)[C@H]2O)CC1,3.004%
CC(O)CN1CCC(CNCc2cccc(OC(C)C)c2)CC1 (stereo not given),0%
CCn1nc(C)c(NC(=O)CN(C)C(C)c2nccs2)c1C (stereo not given),0.5291%
CCC(C)Oc1ccc(CNCCNS(C)(=O)=O)cc1Cl (stereo not given),9.045%